According to paper doi:10.1101/2024.08.18.608474:
These are yes or no findings as the source states them, for the method shown. In cells and extracts the contact can be indirect. Here binding means that the protein was enriched with, or labelled near, the bait; the list need not be complete. For some of these results: A no says only that the protein was not detected with the bait.

Chains of the proteins cited; added tags and fusions are not shown. Residues count along the entry.
UniProt Q13443, residues 29-819: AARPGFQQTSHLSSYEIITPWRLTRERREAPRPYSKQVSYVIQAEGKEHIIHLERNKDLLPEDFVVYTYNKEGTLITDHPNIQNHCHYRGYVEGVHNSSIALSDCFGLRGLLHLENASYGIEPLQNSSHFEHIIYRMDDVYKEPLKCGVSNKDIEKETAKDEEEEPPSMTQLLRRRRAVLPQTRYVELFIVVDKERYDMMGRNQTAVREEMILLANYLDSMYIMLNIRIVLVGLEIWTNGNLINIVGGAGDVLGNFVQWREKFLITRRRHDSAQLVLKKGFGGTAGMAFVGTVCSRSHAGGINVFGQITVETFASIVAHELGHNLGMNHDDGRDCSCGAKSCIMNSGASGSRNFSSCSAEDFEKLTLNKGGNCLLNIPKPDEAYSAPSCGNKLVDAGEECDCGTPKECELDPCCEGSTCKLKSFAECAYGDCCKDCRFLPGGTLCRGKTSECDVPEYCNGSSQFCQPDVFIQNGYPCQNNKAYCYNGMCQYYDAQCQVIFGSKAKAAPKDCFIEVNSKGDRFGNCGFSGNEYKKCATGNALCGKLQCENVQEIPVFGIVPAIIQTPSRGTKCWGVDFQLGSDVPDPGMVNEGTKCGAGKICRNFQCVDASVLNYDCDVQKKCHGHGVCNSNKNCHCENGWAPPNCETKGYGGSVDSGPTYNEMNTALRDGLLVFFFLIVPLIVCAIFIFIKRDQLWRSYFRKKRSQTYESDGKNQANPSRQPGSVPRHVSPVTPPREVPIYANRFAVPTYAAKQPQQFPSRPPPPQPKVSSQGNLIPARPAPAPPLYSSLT
UniProt Q07955: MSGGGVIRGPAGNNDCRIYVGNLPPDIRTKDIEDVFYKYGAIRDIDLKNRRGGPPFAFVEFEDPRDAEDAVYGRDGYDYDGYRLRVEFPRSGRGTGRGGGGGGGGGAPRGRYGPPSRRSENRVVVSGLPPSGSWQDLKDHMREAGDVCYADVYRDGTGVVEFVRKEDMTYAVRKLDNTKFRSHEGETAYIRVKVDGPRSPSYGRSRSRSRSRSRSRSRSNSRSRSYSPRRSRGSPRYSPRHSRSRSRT
UniProt O94953: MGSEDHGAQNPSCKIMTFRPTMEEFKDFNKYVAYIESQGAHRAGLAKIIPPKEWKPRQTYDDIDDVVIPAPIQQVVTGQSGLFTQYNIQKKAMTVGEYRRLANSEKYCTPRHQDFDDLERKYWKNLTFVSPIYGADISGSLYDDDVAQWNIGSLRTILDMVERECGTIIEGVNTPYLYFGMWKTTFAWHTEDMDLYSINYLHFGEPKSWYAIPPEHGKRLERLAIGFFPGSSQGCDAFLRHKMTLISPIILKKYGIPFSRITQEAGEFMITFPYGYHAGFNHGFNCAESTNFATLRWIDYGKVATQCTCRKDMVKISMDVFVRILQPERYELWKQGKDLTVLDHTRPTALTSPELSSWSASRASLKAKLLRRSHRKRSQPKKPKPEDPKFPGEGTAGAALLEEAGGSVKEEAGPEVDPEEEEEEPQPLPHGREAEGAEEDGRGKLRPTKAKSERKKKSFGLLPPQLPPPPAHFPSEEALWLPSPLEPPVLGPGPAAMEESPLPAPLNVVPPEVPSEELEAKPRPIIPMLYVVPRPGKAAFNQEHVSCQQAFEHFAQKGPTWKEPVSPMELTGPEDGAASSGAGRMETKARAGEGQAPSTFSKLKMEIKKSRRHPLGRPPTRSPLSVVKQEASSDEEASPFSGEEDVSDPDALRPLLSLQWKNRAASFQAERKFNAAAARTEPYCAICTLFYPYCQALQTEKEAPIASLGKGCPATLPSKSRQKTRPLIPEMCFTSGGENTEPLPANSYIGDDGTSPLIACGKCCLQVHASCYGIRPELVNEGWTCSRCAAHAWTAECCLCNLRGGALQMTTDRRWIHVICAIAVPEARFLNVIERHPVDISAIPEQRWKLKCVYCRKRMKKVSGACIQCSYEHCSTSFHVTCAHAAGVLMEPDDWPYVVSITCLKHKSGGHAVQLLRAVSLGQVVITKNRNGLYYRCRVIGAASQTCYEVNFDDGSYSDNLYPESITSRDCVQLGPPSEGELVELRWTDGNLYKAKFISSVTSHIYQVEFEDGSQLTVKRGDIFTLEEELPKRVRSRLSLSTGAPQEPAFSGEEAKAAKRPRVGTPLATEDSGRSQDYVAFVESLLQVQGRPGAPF
UniProt Q7LBC6: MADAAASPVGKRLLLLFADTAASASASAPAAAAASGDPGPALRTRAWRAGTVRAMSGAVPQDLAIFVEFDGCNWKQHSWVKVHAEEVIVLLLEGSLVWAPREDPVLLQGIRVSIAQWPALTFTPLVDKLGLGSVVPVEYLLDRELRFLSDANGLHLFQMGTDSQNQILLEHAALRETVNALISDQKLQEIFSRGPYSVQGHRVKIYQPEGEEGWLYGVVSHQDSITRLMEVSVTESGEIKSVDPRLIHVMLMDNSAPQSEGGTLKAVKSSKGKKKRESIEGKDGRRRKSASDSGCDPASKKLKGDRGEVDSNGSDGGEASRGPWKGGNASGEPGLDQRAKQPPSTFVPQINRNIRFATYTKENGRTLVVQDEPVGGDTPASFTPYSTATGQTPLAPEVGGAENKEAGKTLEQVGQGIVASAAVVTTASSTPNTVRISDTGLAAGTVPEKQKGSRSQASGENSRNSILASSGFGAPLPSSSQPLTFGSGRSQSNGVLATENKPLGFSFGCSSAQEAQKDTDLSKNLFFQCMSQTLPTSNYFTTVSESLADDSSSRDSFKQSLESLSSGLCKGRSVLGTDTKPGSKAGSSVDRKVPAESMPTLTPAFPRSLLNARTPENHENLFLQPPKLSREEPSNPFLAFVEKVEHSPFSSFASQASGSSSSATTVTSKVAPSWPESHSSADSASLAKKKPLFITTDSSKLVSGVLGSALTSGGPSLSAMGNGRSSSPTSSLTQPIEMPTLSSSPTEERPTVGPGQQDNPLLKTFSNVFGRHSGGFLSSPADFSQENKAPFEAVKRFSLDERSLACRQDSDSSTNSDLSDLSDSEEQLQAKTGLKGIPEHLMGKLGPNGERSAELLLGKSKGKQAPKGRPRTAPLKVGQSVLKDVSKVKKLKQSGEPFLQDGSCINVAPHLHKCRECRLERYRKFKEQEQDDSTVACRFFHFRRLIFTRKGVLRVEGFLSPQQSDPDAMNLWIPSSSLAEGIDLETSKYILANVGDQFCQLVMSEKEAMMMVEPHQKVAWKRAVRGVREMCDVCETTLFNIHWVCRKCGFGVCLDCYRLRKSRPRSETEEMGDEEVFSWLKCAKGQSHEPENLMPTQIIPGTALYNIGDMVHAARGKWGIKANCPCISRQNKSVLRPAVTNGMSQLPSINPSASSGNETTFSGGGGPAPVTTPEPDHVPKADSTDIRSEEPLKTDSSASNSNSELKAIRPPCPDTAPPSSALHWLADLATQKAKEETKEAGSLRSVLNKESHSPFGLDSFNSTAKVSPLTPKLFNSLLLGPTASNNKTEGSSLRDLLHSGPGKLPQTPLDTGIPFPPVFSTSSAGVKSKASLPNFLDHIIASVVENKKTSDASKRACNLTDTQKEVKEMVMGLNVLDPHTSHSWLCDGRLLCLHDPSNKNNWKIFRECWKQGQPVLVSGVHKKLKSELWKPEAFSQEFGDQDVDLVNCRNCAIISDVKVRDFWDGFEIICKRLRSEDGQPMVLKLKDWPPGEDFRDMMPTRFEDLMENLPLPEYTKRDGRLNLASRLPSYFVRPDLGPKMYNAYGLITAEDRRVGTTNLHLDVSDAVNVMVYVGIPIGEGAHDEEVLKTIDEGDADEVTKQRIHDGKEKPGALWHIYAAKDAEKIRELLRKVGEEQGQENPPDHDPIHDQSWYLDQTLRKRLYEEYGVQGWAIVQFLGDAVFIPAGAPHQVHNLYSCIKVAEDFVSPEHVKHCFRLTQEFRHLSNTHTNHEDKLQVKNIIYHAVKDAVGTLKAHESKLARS
UniProt P11940: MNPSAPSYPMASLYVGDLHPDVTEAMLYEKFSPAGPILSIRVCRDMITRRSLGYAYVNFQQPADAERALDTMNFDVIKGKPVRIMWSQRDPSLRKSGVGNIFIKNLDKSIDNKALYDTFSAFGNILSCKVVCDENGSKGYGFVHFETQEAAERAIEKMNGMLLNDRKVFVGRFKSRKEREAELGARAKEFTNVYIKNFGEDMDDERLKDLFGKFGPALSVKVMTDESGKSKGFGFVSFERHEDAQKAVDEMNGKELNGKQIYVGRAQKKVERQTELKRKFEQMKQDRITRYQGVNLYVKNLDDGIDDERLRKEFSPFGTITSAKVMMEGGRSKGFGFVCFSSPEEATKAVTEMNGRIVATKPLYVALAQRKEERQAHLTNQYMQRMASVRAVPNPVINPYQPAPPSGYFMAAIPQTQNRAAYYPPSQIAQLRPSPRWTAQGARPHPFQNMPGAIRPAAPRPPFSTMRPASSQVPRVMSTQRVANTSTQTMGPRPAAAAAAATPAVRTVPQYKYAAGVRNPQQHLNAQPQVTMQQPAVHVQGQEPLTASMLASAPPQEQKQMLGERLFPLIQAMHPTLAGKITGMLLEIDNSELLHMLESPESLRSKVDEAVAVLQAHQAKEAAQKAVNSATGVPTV
UniProt Q9UNF0: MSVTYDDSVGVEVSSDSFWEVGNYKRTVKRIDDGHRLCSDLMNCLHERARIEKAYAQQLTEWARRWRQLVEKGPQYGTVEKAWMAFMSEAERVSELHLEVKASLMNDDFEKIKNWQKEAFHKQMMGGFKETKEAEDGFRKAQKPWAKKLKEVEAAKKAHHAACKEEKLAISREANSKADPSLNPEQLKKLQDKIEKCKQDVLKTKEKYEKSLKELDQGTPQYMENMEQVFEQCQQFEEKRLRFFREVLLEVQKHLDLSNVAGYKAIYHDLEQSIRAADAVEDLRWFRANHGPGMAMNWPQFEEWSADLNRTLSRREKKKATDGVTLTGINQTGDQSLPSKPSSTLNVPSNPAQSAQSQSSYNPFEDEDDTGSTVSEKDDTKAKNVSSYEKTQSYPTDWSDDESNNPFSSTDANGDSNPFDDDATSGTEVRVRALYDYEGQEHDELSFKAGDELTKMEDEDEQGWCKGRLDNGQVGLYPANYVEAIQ
UniProt P26599: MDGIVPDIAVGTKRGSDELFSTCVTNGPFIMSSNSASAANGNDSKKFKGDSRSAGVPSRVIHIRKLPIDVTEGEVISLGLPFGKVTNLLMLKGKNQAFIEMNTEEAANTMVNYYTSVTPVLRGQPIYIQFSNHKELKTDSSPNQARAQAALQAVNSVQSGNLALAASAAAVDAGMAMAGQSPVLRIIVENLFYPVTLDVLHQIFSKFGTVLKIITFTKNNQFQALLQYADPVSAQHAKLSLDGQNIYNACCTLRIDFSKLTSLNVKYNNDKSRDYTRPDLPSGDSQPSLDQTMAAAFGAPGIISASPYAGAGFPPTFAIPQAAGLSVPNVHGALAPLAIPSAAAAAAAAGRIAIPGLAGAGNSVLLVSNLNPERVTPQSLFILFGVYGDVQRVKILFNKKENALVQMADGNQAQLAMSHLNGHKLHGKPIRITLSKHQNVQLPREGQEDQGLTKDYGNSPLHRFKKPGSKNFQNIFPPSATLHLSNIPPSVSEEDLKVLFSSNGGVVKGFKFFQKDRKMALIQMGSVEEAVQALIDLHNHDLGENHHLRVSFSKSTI

Experiments:
[1] = target: Adam13-BioID (Xenopus laevis) (UniProt O12960); experiment: proximity labelling
[2] = target: human ADAM9 (human (endogenous in HEK293T)) (UniProt Q13443); experiment: affinity purification with mass spectrometry
[3] = target: Adam13 (Xenopus laevis adam13.L) (Xenopus laevis) (UniProt O12960); experiment: affinity purification with mass spectrometry
[4] = target: Adam13 mutant lacking the cytoplasmic domain (Xenopus laevis); experiment: affinity purification with mass spectrometry

binding [1]	binding [2]	binding [3]	binding [4]	Molecule
		binds		SRSF1 (from UniProt Q07955 1-248)
binds				KDM4B (from UniProt O94953 1-1096)
	binds	binds		SART1 (protein, UniProt O43290 1-800) MGSSKKHRGEKEAAGTTAAAGTGGATEQPPRHREHKKHKHRSGGSGGSGGERRKRSRERGGERGSGRRGAEAEARSSTHGRERSQAEPSERRVKREKRDDGYEAAASSKTSSGDASSLSIEETNKLRAKLGLKPLEVNAIKKEAGTKEEPVTADVINPMALRQREELREKLAAAKEKRLLNQKLGKIKTLGEDDPWLDDTAAWIERSRQLQKEKDLAEKRAKLLEEMDQEFGVSTLVEEEFGQRRQDLYSARDLQGLTVEHAIDSFREGETMILTLKDKGVLQEEEDVLVNVNLVDKERAEKNVELRKKKPDYLPYAEDESVDDLAQQKPRSILSKYDEELEGERPHSFRLEQGGTADGLRERELEEIRAKLRLQAQSLSTVGPRLASEYLTPEEMVTFKKTKRRVKKIRKKEKEVVVRADDLLPLGDQTQDGDFGSRLRGRGRRRVSEVEEEKEPVPQPLPSDDTRVENMDISDEEEGGAPPPGSPQVLEEDEAELELQKQLEKGRRLRQLQQLQQLRDSGEKVVEIVKKLESRQRGWEEDEDPERKGAIVFNATSEFCRTLGEIPTYGLAGNREEQEELMDFERDEERSANGGSESDGEENIGWSTVNLDEEKQQQDFSASSTTILDEEPIVNRGLAAALLLCQNKGLLETTVQKVARVKAPNKSLPSAVYCIEDKMAIDDKYSRREEYRGFTQDFKEKDGYKPDVKIEYVDETGRKLTPKEAFRQLSHRFHGKGSGKMKTERRMKKLDEEALLKKMSSSDTPLGTVALLQEKQKAQKTPYIVLSGSGKSMNANTITK

The remaining lines, values behind:

Molecule	binding [1]	binding [2]	binding [3]	binding [4]
KDM3B (from UniProt Q7LBC6 1-1761)	binds			
PABPC1 (from UniProt P11940 1-636)		binds	binds	
PACSIN2 (from UniProt Q9UNF0 1-486)	binds			
KMT2A (from UniProt Q03164 1-3969)	binds	binds		
PTBP1 (from UniProt P26599 1-557)		binds	binds	
SRSF7 (protein, UniProt Q16629 1-238) MSRYGRYGGETKVYVGNLGTGAGKGELERAFSYYGPLRTVWIARNPPGFAFVEFEDPRDAEDAVRGLDGKVICGSRVRVELSTGMPRRSRFDRPPARRPFDPNDRCYECGEKGHYAYDCHRYSRRRRSRSRSRSHSRSRGRRYSRSRSRSRGRRSRSASPRRSRSISLRRSRSASLRRSRSGSIKGSRYFQSPSRSRSRSRSISRPRSSRSKSRSPSPKRSRSPSGSPRRSASPERMD			binds	no binding
SRSF3 (protein, UniProt P84103 1-164) MHRDSCPLDCKVYVGNLGNNGNKTELERAFGYYGPLRSVWVARNPPGFAFVEFEDPRDAADAVRELDGRTLCGCRVRVELSNGEKRSRNRGPPPSWGRRPRDDYRRRSPPPRRRSPRRRSFSRSRSRSLSRDRRRERSLSRERNHKPSRSFSRSRSRSRSNERK			binds	no binding
